Results are given in words; binding and its absence hold for the method and conditions named. Binding seen in cells or lysates may run through a third protein. Some results given as binding are weak or reduced against the parent protein; the word gives no strength.

Amino acid sequences for entries named in this document (tags omitted). A change or cut given only in a name is not applied to a line headed by its entry.
UniProt P49715: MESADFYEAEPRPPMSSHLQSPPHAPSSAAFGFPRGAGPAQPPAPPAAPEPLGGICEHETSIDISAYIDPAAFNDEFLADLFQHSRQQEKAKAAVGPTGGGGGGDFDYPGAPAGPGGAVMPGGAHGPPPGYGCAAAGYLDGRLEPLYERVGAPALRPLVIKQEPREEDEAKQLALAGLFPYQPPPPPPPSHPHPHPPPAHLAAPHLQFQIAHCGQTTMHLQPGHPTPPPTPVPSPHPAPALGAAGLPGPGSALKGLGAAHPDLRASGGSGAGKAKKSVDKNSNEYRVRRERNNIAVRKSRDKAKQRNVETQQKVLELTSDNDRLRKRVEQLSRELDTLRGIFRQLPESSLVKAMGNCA
UniProt P51531: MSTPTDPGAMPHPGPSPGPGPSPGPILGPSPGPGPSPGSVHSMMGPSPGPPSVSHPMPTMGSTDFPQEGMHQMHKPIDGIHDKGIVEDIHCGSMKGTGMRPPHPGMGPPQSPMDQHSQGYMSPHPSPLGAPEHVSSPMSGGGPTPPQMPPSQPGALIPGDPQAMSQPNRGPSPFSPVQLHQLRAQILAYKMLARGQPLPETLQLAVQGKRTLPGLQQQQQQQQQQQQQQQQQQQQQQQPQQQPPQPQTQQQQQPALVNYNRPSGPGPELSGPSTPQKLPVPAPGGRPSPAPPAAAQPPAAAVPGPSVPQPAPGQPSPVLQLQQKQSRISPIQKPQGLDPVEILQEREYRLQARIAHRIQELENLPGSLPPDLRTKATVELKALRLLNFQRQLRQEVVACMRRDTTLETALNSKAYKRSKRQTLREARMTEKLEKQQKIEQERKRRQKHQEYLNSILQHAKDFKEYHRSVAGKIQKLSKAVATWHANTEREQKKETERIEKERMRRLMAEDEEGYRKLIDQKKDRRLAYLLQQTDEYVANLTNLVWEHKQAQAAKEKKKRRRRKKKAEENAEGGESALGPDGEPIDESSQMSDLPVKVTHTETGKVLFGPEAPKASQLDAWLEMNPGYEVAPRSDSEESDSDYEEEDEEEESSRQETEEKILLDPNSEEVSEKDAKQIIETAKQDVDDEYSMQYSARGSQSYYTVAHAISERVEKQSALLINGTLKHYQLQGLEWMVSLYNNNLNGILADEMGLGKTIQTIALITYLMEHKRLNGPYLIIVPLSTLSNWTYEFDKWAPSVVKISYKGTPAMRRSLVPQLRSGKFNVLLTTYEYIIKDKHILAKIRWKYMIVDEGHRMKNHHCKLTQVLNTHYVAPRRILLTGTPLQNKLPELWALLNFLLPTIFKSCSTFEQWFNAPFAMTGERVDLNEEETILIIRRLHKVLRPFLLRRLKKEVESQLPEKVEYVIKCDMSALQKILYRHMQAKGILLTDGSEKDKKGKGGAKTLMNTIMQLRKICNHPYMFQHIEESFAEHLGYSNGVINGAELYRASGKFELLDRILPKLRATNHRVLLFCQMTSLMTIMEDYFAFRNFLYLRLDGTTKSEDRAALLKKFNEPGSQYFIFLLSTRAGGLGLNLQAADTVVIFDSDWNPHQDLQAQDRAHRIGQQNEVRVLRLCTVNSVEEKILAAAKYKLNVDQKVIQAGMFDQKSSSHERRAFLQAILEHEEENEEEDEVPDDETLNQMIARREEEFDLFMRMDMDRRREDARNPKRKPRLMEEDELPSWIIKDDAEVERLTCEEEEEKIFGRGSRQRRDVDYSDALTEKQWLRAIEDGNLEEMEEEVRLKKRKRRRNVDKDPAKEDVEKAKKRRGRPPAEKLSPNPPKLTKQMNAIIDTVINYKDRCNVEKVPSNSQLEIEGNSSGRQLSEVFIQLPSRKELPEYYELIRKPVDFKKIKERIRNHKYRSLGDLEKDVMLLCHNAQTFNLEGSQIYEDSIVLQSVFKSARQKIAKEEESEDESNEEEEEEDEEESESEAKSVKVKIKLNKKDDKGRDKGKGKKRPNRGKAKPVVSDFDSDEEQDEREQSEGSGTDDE
UniProt P51532: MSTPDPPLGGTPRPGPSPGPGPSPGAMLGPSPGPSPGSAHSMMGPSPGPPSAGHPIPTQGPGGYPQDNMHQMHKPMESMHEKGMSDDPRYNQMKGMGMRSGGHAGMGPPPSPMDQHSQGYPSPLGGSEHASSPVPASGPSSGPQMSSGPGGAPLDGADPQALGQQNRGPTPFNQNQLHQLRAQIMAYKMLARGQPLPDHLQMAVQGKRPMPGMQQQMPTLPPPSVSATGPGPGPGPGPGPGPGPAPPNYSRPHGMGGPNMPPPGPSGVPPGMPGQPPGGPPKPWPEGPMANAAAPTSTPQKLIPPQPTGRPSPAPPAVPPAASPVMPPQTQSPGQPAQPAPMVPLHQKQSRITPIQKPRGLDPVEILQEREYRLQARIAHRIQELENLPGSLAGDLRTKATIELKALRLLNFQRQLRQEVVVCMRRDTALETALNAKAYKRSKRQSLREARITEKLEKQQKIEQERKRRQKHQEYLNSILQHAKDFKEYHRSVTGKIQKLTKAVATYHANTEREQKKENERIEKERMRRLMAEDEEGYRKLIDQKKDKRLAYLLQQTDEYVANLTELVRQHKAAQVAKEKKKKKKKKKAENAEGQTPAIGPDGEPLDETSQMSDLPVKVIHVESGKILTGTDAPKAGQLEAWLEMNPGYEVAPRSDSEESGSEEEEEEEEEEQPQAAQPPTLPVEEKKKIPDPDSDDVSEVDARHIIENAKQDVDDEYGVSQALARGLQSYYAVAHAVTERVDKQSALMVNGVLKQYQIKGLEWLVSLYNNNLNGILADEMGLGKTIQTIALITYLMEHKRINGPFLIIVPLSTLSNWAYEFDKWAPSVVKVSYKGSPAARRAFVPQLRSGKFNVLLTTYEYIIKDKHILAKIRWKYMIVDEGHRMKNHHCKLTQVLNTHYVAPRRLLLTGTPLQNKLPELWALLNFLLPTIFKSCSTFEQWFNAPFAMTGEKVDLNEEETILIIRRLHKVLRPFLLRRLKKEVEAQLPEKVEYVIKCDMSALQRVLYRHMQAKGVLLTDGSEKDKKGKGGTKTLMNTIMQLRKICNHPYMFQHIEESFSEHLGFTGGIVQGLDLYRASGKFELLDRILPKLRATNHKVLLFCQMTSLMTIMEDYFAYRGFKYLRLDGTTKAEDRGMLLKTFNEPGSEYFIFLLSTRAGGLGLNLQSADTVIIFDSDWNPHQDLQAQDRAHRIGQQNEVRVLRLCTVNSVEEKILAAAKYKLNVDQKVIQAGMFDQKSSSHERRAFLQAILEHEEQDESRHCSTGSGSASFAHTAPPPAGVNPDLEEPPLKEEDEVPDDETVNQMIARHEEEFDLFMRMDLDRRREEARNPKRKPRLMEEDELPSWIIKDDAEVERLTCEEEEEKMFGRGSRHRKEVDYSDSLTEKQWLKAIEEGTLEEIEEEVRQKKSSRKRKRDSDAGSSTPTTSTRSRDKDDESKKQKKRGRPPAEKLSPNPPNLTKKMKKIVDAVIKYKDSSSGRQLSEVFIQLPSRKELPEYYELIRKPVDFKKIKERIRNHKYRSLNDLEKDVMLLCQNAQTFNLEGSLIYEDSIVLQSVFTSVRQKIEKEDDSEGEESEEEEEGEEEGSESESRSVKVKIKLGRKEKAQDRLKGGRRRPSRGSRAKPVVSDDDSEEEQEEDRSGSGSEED
UniProt O15054: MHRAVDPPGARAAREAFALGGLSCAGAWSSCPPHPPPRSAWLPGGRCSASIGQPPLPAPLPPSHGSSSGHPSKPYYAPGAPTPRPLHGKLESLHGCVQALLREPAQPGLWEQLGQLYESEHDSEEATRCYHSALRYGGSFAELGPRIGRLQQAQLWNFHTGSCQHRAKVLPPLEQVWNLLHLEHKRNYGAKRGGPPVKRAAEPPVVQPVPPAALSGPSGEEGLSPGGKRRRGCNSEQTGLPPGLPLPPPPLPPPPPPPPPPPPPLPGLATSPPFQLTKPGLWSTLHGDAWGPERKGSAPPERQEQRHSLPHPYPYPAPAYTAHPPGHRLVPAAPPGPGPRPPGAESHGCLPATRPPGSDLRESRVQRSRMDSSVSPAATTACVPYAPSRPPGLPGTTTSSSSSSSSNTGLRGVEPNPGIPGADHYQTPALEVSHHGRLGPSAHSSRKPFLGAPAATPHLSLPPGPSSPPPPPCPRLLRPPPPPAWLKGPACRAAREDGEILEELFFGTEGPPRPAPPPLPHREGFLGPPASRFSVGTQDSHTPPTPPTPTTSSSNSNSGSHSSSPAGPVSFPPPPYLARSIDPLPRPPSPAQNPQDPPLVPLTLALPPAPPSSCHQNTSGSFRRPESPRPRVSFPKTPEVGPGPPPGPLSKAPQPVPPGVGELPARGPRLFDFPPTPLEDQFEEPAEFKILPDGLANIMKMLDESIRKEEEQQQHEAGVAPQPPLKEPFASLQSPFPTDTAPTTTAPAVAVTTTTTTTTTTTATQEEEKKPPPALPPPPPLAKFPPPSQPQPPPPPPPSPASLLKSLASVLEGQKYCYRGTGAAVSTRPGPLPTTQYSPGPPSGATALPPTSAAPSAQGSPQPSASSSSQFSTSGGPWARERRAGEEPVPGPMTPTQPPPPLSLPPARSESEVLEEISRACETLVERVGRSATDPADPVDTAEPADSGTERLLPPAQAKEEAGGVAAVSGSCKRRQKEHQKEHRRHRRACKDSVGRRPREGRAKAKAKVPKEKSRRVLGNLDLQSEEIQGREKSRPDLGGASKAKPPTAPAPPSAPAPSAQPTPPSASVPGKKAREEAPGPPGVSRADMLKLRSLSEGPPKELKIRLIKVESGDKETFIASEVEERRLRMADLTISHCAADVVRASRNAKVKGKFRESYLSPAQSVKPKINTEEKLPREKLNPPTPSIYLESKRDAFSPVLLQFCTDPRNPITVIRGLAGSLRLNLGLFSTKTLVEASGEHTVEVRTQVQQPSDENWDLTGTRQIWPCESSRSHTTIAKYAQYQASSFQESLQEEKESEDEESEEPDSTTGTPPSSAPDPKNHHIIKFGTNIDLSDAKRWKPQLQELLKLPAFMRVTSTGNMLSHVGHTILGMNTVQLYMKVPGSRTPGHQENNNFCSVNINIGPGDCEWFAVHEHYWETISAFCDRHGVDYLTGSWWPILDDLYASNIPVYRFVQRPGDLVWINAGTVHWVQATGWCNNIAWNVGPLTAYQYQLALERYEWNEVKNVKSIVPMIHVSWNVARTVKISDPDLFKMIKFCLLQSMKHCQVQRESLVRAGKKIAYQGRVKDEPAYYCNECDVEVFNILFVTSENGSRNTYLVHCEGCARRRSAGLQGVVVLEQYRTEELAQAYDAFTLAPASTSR

This assay concerns the target CAAT enhancer-binding protein alpha (C/EBPα) (human (endogenous in Huh7)) (UniProt P49715). Nature of the assay: co-IP; whole cell extracts of Huh7 cells transfected with wild-type or H1390A Jmjd3, immunoprecipitated with anti-C/EBPα, Western blot; lysis buffer 50 mM Tris-HCl pH 7.4, 350 mM NaCl, 30 mM MgCl2, 10 mM EDTA, 0.5% NP-40, 20% glycerol. In general terms: In western blotting, separated proteins are transferred to a membrane and probed.

“Brm, ATPase subunit of the SWI/SNF chromatin remodeling complex (from UniProt P51531 1-1590)”: the binding result was “binds”.

“Brg1, ATPase subunit of the SWI/SNF chromatin remodeling complex (from UniProt P51532 1-1647)”: the binding entry is listed as “no binding”.

As to “Jumonji domain containing 3 (Jmjd3), wild type (from UniProt O15054 1-1643)”, the binding entry is on record as “binds”.

Turning to “Jmjd3 H1390A demethylase defective mutant (from UniProt O15054 1-1643)”, the binding result is reported as “binds”.

These data come from publication PMC5078794.
